Screening data, single-dose tests

By UniProt entry, the sequences of proteins in these tests, tags left out. Residues count along the entry.
UniProt I6X8D2, whole entry: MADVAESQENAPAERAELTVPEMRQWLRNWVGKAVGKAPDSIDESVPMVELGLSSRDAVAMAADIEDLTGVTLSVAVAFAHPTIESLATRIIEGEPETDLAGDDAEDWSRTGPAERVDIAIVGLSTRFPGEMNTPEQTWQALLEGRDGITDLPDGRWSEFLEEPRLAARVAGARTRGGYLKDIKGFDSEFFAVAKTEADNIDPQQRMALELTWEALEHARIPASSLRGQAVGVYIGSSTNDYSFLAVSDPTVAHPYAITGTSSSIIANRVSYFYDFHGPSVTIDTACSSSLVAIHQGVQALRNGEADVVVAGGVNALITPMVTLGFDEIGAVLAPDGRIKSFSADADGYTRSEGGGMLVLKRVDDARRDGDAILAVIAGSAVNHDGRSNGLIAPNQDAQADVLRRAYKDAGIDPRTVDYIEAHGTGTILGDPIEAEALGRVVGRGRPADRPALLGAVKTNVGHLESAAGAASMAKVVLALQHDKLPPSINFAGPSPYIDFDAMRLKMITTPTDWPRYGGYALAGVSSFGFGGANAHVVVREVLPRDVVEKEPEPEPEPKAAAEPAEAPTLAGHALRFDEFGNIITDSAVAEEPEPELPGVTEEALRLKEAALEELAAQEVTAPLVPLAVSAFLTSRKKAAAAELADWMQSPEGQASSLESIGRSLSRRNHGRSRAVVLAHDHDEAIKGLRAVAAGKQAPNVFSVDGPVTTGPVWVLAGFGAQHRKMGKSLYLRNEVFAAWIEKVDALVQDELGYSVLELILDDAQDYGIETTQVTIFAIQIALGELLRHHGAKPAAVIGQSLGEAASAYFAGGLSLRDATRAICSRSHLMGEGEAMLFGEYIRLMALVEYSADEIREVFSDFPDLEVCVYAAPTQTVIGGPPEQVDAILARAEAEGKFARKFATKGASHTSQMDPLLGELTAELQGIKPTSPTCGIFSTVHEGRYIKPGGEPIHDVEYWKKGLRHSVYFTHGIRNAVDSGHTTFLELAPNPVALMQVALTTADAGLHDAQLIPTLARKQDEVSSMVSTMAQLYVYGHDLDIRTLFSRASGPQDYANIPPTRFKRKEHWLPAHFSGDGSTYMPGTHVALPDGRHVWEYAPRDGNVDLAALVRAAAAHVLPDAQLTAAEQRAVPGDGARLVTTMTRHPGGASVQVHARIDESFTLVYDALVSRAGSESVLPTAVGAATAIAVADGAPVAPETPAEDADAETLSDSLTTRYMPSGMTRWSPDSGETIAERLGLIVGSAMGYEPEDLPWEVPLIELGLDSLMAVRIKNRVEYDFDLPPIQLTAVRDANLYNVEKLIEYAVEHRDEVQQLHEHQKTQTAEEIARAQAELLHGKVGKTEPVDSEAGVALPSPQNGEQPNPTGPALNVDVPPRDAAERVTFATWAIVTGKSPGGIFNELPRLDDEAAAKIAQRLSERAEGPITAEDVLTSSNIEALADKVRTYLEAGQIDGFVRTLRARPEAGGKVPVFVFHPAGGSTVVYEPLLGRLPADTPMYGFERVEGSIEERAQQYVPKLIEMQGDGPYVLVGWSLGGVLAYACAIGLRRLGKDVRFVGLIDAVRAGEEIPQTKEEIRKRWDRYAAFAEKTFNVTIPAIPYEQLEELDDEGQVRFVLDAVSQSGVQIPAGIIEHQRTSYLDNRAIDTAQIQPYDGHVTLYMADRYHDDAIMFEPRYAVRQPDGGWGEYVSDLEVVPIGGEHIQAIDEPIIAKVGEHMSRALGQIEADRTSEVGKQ
UniProt P9WNZ1, whole entry: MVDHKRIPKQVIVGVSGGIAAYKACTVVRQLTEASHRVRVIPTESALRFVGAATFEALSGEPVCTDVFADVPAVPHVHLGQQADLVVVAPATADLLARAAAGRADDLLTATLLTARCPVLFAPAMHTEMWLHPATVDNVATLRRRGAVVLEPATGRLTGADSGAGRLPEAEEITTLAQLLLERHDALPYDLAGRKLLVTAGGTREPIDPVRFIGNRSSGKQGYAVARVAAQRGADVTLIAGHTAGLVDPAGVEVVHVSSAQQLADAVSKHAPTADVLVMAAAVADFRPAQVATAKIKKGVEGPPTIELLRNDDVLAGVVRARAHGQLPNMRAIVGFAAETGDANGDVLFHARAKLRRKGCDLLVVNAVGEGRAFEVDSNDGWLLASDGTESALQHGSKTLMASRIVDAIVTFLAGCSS
UniProt P9WFT3, whole entry: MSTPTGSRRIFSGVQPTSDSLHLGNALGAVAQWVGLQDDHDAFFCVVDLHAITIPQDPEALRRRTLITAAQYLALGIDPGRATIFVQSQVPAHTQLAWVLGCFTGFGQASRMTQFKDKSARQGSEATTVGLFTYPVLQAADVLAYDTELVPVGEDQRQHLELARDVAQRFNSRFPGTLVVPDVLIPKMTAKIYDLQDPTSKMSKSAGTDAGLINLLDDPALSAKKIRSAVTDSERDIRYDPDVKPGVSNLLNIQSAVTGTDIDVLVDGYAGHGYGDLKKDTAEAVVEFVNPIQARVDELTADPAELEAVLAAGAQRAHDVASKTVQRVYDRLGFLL
UniProt A4I591, 1-473: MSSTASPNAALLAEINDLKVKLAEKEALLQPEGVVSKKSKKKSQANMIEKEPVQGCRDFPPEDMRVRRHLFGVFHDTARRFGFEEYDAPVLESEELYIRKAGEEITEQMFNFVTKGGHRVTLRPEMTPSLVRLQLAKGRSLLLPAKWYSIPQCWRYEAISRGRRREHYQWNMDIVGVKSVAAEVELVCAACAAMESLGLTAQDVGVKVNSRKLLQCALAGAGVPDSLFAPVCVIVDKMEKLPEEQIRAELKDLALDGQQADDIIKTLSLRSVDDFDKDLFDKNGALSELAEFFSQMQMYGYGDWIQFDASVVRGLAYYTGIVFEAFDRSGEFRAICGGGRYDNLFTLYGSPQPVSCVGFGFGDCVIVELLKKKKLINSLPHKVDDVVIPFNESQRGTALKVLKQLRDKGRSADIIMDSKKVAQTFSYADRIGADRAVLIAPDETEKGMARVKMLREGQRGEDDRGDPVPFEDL
UniProt Q4DA54, 1-478: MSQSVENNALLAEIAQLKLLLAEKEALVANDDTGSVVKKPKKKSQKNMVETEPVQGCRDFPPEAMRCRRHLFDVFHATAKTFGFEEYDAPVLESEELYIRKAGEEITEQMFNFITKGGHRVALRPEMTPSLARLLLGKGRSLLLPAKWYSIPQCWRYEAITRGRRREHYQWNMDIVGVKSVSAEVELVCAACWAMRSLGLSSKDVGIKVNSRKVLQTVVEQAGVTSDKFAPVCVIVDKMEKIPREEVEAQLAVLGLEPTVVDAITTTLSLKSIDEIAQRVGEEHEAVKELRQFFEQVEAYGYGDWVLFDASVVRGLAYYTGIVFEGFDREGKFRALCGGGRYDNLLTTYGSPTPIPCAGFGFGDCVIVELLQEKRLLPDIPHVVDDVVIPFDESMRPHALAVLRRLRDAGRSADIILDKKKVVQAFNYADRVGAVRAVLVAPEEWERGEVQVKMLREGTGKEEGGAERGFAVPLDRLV

Pks13 thioesterase: 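Polyketide synthase Pks13, Mycobacterium tuberculosis (UniProt I6X8D2). Enzyme assay of the thioesterase domain of polyketide synthase 13; the read-out is not stated. Concentration: 30 µM. Higher reads as stronger inhibition (inferred from which compounds were picked for retests). Of about 67,000 compounds tested this way, about 300 (0.46%) reached 50% or more in at least one test.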
Toxoplasma: 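Assay of Toxoplasma gondii numbers, read through their beta-galactosidase reporter with a colour substrate. Concentration: 10 µM. The record gives no direction; the compounds picked for IC50 retests had high values, so higher reads as fewer parasites. Of about 67,000 compounds tested this way, about 260 (0.38%) reached 50% or more in at least one test.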
CoaBC: 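Coenzyme A biosynthesis protein CoaBC, Mycobacterium tuberculosis (UniProt P9WNZ1). Enzyme assay of CoaBC with a phosphate dye (Biomol Green) read at 650 nm. Concentration: 30 µM. Higher reads as stronger inhibition, judged from the few compounds that gave an IC50. Most strong results did not repeat in a second test. Of about 67,000 compounds tested this way, about 40 (0.06%) reached 50% or more in at least one test.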
MtTrpRS: 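Enzyme assay of tryptophanyl-tRNA synthetase; the read-out is not stated. Target: Tryptophan-tRNA ligase, Mycobacterium tuberculosis (UniProt P9WFT3). Concentration: 10 µM. Direction is not recorded; retested compounds ran higher, which suggests that high means inhibition. Size under these conditions: about 65,000 compounds, about 64 of them at 50% or above in at least one test.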
LiHisRS: 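Histidine-tRNA ligase, Leishmania infantum (UniProt A4I591). Enzyme assay of histidyl-tRNA synthetase; the read-out is not stated. Tested at 30 µM. Direction is inferred from retests: higher values go with stronger inhibition. The assay is labelled LdHisRS but filed under L. infantum. About 69,000 compounds were tested under these conditions; 0.6% (about 410) showed 50% or more at least once.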
TcHisRS: 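Enzyme assay of histidyl-tRNA synthetase; the read-out is not stated. Target: Histidine-tRNA ligase, Trypanosoma cruzi CL Brener (UniProt Q4DA54). Compounds at 30 µM. The record gives no direction; compounds that gave an IC50 in retests scored well above the rest, so higher reads as stronger inhibition. Size under these conditions: about 69,000 compounds, about 31 of them at 50% or above in at least one test.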

Values are the deposited “Percent Effect”, in %.
The controls that fix the scale are not given in the record; negative values are as filed.
Compounds were drawn at random from those tested, without regard to their results.

- O=C(O)C(F)(F)F.O=C(O)C(F)(F)F.[H][C@@]12COC[C@]1(COCC(=O)N(C)C)CN(Cc1cccc(C)n1)C2 : Toxoplasma: -2.599%
- [H][C@@]12CCN(C(C)=O)C[C@]1(C(=O)NCc1cnc(C)cn1)CCO2 : Toxoplasma: -12.68%
- CN(C)CC1CSCCCN1S(=O)(=O)Cc1cccc(F)c1 (stereo not given) : Pks13 thioesterase: -36.45%; Toxoplasma: -70.53%; CoaBC: -14.16%; MtTrpRS: -0.3799%; LiHisRS: 17.39%; TcHisRS: 4.124%
- Cc1cc(C)n(CCCNC(=O)C(C)NC(=O)c2ccccc2Cl)n1 (stereo not given) : Pks13 thioesterase: -25.12%; Toxoplasma: -0.553%; CoaBC: 6.883%; MtTrpRS: 0.7415%; LiHisRS: 17.14%; TcHisRS: 2.174%
- COc1cc(N2CCC3(CC2)CCN(c2cccnc2)C3=O)ncn1 : Pks13 thioesterase: -9.457%; CoaBC: 4.68%; MtTrpRS: -10.06%; LiHisRS: 28%; TcHisRS: 9.278%
- CN1CCN(C)C2(CCN(C(=O)CC(F)(F)F)CC2)C1=O : Pks13 thioesterase: 3.631%; Toxoplasma: -1.062%; CoaBC: 0.8485%; LiHisRS: -3.846%; TcHisRS: -2.793%
- NC(=O)C1CCCN1Cc1nccn1CC(F)(F)F (stereo not given) : Pks13 thioesterase: -5.299%; Toxoplasma: -1.019%; CoaBC: 1.35%; MtTrpRS: -1.563%; LiHisRS: 15.69%; TcHisRS: 4.938%
- Cc1csc(N2CCCN(C(=O)c3cccs3)CC2)n1 : Pks13 thioesterase: 0.1551%; Toxoplasma: 2.497%; CoaBC: -2.903%; MtTrpRS: -0.09141%; LiHisRS: 14.47%; TcHisRS: 8.374%
- COc1c(Br)c(CC2CC(CO)=NO2)c(Br)c2c1OCO2 (stereo not given) : Pks13 thioesterase: -30.75%; Toxoplasma: 10.25%; CoaBC: 1.531%; MtTrpRS: 3.565%; LiHisRS: 23.46%; TcHisRS: 4.018%
- CS(=O)(=O)N1CCC2(CCCN(c3ncc(F)cn3)C2)C1 (stereo not given) : Pks13 thioesterase: 3.771%; Toxoplasma: -19.61%; CoaBC: -1.434%; MtTrpRS: -2.745%; LiHisRS: 10%; TcHisRS: 0%
- O=C(O)C(F)(F)F.[H][C@@]12COC[C@@H](CC(=O)N3CCCCO3)[C@]1([H])CN(CC1CCOCC1)C2 : Toxoplasma: 13.86%
- CCOc1ccc(S(=O)(=O)N(CCOC)Cc2ccoc2)cc1F : Pks13 thioesterase: 6.003%; Toxoplasma: 20.13%; CoaBC: 4.707%; MtTrpRS: -0.297%; LiHisRS: 4.878%; TcHisRS: 4.327%
- CC(=O)c1c(F)cccc1NCC(O)C(C)(C)C (stereo not given) : Pks13 thioesterase: 6.818%; Toxoplasma: 8.952%; CoaBC: 1.519%; MtTrpRS: 0.4772%; LiHisRS: 21.05%; TcHisRS: 0%
- Cc1nc(CN2CCC3(CCCN(Cc4ccncc4)C3)C2=O)cs1 (stereo not given) : Pks13 thioesterase: -19.24%; CoaBC: 5.302%; MtTrpRS: -6.117%; LiHisRS: 25%; TcHisRS: 7.619%
- O=C(O)C(F)(F)F.O=C(O)C(F)(F)F.[H][C@@]12CCN(Cc3cnn(C)c3)[C@]1([H])CC[C@H](COCc1cccnc1)O2 : Toxoplasma: -7.539%
- COc1ccc(CC(=O)N2CCCCC2Cn2cccn2)cc1OC (stereo not given) : Pks13 thioesterase: -27.1%; Toxoplasma: -2.262%; CoaBC: 0.6748%; MtTrpRS: 0.5297%; LiHisRS: 11.43%; TcHisRS: -1.087%
- Cn1c(CN2CCOCC2)cc(=O)c(O)c1CN1CCOCC1 : Pks13 thioesterase: -17.42%; Toxoplasma: 0.5437%; CoaBC: 0.9685%; MtTrpRS: 3.226%; LiHisRS: 19.57%; TcHisRS: 3%
- O=C(NC1CCN(CC2CC2)C1)c1ccc(N2CCC(O)CC2)cc1 (stereo not given) : Pks13 thioesterase: -33.85%; Toxoplasma: -1.653%; CoaBC: -22.73%; MtTrpRS: -1.857%; LiHisRS: 9.333%; TcHisRS: 0.578%

The first 2 entries again:

* O=C(O)C(F)(F)F.O=C(O)C(F)(F)F.[H][C@@]12COC[C@]1(COCC(=O)N(C)C)CN(Cc1cccc(C)n1)C2 | Toxoplasma: -2.599%
* [H][C@@]12CCN(C(C)=O)C[C@]1(C(=O)NCc1cnc(C)cn1)CCO2 | Toxoplasma: -12.68%

From ChEMBL document CHEMBL3988442, “University of Dundee, Small-Polar-MMV Screening Library” (2021).